These are yes or no findings as the source states them, for the method shown. In cells and extracts the contact can be indirect. Sequences can lack the tags named with a protein.
Target: T1, WT Mdm30-Myc (S. cerevisiae) (UniProt Q05930)
T1 sequence: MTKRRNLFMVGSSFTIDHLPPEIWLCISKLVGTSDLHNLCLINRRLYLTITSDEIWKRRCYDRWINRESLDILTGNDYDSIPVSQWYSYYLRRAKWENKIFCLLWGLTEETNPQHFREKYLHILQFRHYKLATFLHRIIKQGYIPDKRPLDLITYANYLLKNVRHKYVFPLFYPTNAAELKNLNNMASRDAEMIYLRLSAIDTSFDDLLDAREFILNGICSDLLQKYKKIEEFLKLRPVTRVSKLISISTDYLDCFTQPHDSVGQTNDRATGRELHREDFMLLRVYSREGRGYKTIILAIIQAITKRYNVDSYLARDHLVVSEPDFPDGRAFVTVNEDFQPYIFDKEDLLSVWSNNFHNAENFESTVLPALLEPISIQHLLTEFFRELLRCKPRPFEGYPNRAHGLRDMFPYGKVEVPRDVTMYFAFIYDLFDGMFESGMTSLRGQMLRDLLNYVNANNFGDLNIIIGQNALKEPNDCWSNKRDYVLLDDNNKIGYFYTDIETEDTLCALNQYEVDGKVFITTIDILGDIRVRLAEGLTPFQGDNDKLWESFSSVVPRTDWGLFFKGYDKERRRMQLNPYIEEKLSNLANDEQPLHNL
Experiment: co-IP; lysates of ubp2Δ mdm30Δ yeast co-expressing Ubp2-HA and Mdm30-Myc (WT or F-box mutant); anti-Myc (9E10) or mock on protein G-Sepharose, 2 h at 4 °C; IP buffer 100 mM Tris pH 7.5, 100 mM NaCl, 0.6% Triton X-100, 10% glycerol; anti-HA immunoblot; also done in the presence or absence of Rup1

B1: Ubp2 tagged with six HA C-terminal epitopes (Ubp2-HA) (enzyme, UniProt Q01476 1-1272)
chain: MPNEDNELQKAIENHHNQLLNQDKENADRNGSVIEDLPLYGTSINQQSTPGDVDDGKHLLYPDIATNLPLKTSDRLLDDILCDTIFLNSTDPKVMQKGLQSRGILKESMLSYSTFRSSIRPNCLGSLTDQVVFQTKSEYDSISCPKYNKIHVFQAVIFNPSLAEQQISTFDDIVKIPIYHLKVSVKVRQELERLKKHVGVTQFHSLDHLHEYDRVDLSTFDSSDPNLLDYGIYVSDDTNKLILIEIFKPEFNSPEEHESFTADAIKKRYNAMCVKNESLDKSETPSQVDCFYTLFKIFKGPLTRKSKAEPTKTIDSGNLALNTHLNPEWLTSKYGFQASSEIDEETNEIFTEYVPPDMVDYVNDLETRKIRESFVRKCLQLIFWGQLSTSLLAPNSPLKNTKSVKGMSSLQTSFSTLPWFHLLGESRARILLNSNEQTHSPLDAEPHFINLSVSHYYTDRDIIRNYESLSSLDPENIGLYFDALTYIANRKGAYQLIAYCGKQDIIGQEALENALLMFKINPKECNISELNEATLLSIYKYETSNKSQVTSNHLTNLKNALRLLAKYTKSDKLKFYVDHEPYRALSQAYDTLSIDESVDEDIIKTAYSVKINDSPGLKLDCDRALYTIAISKRSLDLFNFLTEECPQFSNYYGPEKLDYQEALKLLQVNENASDETILKIFKQKWFDENVYEPDQFLILRAALTKISIERNSTLITNFLLTGTIDPNSLPPENWPTGINNIGNTCYLNSLLQYYFSIAPLRRYVLEYQKTVENFNDHLSNSGHIRRIGGREISRGEVERSIQFIYQLRNLFYAMVHTRERCVTPSKELAYLAFAPSNVEVEFEVEGNKVVDQTGVLSDSKKETTDDAFTTKIKDTSLIDLEMEDGLNGDVGTDANRKKNESNDAEVSENEDTTGLTSPTRVAKISSDQLENALEMGRQQDVTECIGNVLFQIESGSEPIRYDEDNEQYDLVKQLFYGTTKQSIVPLSATNKVRTKVERFLSLLINIGDHPKDIYDAFDSYFKDEYLTMEEYGDVIRTVAVTTFPTILQVQIQRVYYDRERLMPFKSIEPLPFKEVIYMDRYADTENPLLLAKKKETEEMKQKLKVMKNRQRELLSRDDSGLTRKDAFLESIKLLESDTIKKTPLKIEAANDVIKTLRNNVQNIDNELMKLYNDINSLEEKISHQFDDFKEYGYSLFSVFIHRGEASYGHYWIYIKDRNRNGIWRKYNDETISEVQEEEVFNFNEGNTATPYFLVYVKQGQEGDIEPLKRILK
- binding: no binding

— article PMC5474747
